Test results reported in PMC9916724.
These are yes or no findings as the source states them, for the method shown. Binding seen in cells or lysates may run through a third protein. A result given as binding can be weak or reduced; the word gives no strength.

Target: integrin αvβ5 (human (endogenous in cultured human podocytes))
Assay: co-IP; human podocytes lysed in IP lysis buffer; immunoprecipitation with anti-GRP78 or anti-αvβ5 overnight at 4 °C, protein G-Sepharose beads 1 h at 4 °C; immunoblot with anti-ISM; basal conditions; negative control with unspecific antibody

B1: Isthmin-1 (ISM1) (protein, UniProt B1AKI9 30-464)
chain: ADGPDAAAGNASQAQLQNNLNVGSDTTSETSFSLSKEAPREHLDHQAAHQPFPRPRFRQETGHPSLQRDFPRSFLLDLPNFPDLSKADINGQNPNIQVTIEVVDGPDSEADKDQHPENKPSWSVPSPDWRAWWQRSLSLARANSGDQDYKYDSTSDDSNFLNPPRGWDHTAPGHRTFETKDQPEYDSTDGEGDWSLWSVCSVTCGNGNQKRTRSCGYACTATESRTCDRPNCPGIEDTFRTAATEVSLLAGSEEFNATKLFEVDTDSCERWMSCKSEFLKKYMHKVMNDLPSCPCSYPTEVAYSTADIFDRIKRKDFRWKDASGPKEKLEIYKPTARYCIRSMLSLESTTLAAQHCCYGDNMQLITRGKGAGTPNLISTEFSAELHYKVDVLPWIICKGDWSRYNEARPPNNGQKCTESPSDEDYIKQFQEAREY
binding: binds
